Laboratory results reported in publication PMC4274898.

Sequences of proteins named here, by UniProt entry; tags and fusion partners are left off. A change or cut given only in a name is not applied to a line headed by its entry.
UniProt Q9FX25: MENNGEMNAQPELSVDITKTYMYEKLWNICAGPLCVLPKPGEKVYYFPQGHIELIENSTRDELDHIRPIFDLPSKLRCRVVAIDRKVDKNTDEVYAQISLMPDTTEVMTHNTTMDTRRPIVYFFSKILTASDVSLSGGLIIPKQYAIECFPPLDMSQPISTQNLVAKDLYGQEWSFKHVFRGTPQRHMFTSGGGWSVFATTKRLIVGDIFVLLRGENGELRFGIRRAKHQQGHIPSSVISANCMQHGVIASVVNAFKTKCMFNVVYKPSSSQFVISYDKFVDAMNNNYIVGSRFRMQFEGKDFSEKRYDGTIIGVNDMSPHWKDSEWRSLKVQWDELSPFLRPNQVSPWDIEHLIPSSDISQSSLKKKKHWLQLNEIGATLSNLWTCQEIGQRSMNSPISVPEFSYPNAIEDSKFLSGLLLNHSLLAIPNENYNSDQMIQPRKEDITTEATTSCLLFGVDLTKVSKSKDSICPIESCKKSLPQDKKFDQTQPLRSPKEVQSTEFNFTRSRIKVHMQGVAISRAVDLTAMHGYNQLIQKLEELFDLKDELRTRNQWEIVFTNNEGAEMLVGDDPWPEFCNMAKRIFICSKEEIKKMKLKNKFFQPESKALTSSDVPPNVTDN

B1: Aux/IAA8 (protein, UniProt Q38826 1-321)
chain: MSYRLLSVDKDELVTSPCLKERNYLGLSDCSSVDSSTIPNVVGKSNLNFKATELRLGLPESQSPERETDFGLLSPRTPDEKLLFPLLPSKDNGSATTGHKNVVSGNKRGFADTWDEFSGVKGSVRPGGGINMMLSPKVKDVSKSIQEERSHAKGGLNNAPAAKAQVVGWPPIRSYRKNTMASSTSKNTDEVDGKPGLGVLFVKVSMDGAPYLRKVDLRTYTSYQQLSSALEKMFSCFTLGQCGLHGAQGRERMSEIKLKDLLHGSEFVLTYEDKDGDWMLVGDVPWEIFTETCQKLKIMKGSDSIGLAPGAVEKSKNKERV
B2: Aux/IAA9 (protein, UniProt Q38827 1-338)
chain: MSPEEELQSNVSVASSSPTSNCISRNTLGGLKEHNYLGLSDCSSVGSSTLSPLAEDDKATISLKATELTLGLPGSQSPARDTELNLLSPAKLDEKPFFPLLPSKDEICSSSQKNNASGNKRGFSDTMDQFAEAKSSVYTEKNWMFPEAAATQSVTKKDVPQNIPKGQSSTTNNSSSPPAAKAQIVGWPPVRSYRKNTLATTCKNSDEVDGRPGSGALFVKVSMDGAPYLRKVDLRSYTNYGELSSALEKMFTTFTLGQCGSNGAAGKDMLSETKLKDLLNGKDYVLTYEDKDGDWMLVGDVPWEMFIDVCKKLKIMKGCDAIGLAAAPRAMEKSKMRA
B3: Aux/IAA10 (protein, UniProt Q38828 1-261)
chain: MNGLQEVCSSSGSVMIGLPAEEDENAAHSSEDSSCPDESVSETELDLALGLSIGRRKVRSSLSSSSSSLTRESGTKRSADSSPAAASNATRQVAVGWPPLRTYRINSLVNQAKSLATEGGLSSGIQKETTKSVVVAAKNDDACFIKSSRTSMLVKVTMDGVIIGRKVDLNALDSYAALEKTLDLMFFQIPSPVTRSNTQGYKTIKETCTSKLLDGSSEYIITYQDKDGDWMLVGDVPWQMFLGSVTRLRIMKTSIGAGVGK
B4: Aux/IAA11 (protein, UniProt Q38829 1-246)
chain: MEGGSASGSASALSNDENLVVSCEDSSSPIGNELELGLTLSLGRKGYRDCRVYADDSSSSSSSSSLSRASVIAGIKRTADSMAATSGQVVGWPPIRTYRMNSMVNQAKASATEDPNLEISQAVNKNRSDSTKMRNSMFVKVTMDGIPIGRKIDLNAHKCYESLSNTLEEMFLKPKLGSRTLETDGHMETPVKILPDGSSGLVLTYEDKEGDWMLVGDVPWGMFIGSVRRLRIMKTSEATGKAQMIL

biological target: ARF13 (Arabidopsis thaliana) (UniProt Q9FX25); assay: two-hybrid; S. cerevisiae AH109 co-transformed with pGBKT7-ARF (bait) and pGADT7-Aux/IAA (prey); growth on SD/-Ade-His-Leu-Trp against SD/-Leu/-Trp; at least 10 independent colonies; serial dilutions for strength

Binder	binding
B1	no binding
B2	no binding
B3	no binding
B4	no binding

No constants are given. Whether binding was seen depends on the method and setting.
